Data reported in publication PMC5500810.
These are yes or no findings as the source states them, for the method shown. Some binding calls cover weakened binding; strength is not graded here.

By UniProt entry, the sequences of proteins in these tests, tags left out. Residues count along the entry.
UniProt P54764, residues 22-203: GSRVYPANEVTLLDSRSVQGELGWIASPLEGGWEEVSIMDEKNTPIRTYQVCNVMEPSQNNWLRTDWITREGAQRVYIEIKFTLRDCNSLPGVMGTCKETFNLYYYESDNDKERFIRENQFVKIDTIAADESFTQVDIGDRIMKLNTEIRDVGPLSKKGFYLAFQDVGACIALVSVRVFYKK
UniProt P20827, residues 19-182: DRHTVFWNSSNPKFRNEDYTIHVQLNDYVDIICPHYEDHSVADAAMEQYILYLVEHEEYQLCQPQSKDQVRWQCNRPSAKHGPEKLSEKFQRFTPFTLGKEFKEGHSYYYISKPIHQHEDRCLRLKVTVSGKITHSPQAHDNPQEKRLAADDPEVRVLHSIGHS
UniProt P52799, residues 28-229: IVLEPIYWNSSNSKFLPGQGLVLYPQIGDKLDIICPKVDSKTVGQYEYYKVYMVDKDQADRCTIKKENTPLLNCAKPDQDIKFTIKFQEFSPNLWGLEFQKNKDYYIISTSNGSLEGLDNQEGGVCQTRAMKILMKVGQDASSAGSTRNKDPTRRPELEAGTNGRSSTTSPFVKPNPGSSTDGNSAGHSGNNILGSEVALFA

Molecular target: EphA4 ligand-binding domain (human, amino acids 22-203) (human) (UniProt P54764)
Assay: AlphaScreen or HTRF; competition: biotinylated EphA4 LBD (10 nM) preincubated 1 h with increasing Nb, then Fc-tagged ephrin (3 or 10 nM); anti-IgG acceptor and streptavidin donor beads; 50 mM Hepes, 100 mM NaCl, 0.1% Triton, 0.1% BSA; room temperature; both purified

| binding | Substance |
| --- | --- |
| binds | ephrin-A1 (Fc-tagged; R&D Systems) (from UniProt P20827 19-182) (Fc fusion) |
| binds | ephrin-B2 (Fc-tagged; R&D Systems) (from UniProt P52799 28-229) (Fc fusion) |
